Laboratory results as given in the supplement of paper PMC11732987, “Enantioselective OTUD7B fragment discovery through chemoproteomics screening and high-throughput optimisation” (Communications Chemistry, 2025).
Some of the results follow. The data scatter; read single values as rough.

Chains of the proteins cited; added tags and fusions are not shown. Lines headed by an entry give the natural chain unless they say otherwise; changes in a name come on top. Residues count along the entry.
UniProt Q562F6: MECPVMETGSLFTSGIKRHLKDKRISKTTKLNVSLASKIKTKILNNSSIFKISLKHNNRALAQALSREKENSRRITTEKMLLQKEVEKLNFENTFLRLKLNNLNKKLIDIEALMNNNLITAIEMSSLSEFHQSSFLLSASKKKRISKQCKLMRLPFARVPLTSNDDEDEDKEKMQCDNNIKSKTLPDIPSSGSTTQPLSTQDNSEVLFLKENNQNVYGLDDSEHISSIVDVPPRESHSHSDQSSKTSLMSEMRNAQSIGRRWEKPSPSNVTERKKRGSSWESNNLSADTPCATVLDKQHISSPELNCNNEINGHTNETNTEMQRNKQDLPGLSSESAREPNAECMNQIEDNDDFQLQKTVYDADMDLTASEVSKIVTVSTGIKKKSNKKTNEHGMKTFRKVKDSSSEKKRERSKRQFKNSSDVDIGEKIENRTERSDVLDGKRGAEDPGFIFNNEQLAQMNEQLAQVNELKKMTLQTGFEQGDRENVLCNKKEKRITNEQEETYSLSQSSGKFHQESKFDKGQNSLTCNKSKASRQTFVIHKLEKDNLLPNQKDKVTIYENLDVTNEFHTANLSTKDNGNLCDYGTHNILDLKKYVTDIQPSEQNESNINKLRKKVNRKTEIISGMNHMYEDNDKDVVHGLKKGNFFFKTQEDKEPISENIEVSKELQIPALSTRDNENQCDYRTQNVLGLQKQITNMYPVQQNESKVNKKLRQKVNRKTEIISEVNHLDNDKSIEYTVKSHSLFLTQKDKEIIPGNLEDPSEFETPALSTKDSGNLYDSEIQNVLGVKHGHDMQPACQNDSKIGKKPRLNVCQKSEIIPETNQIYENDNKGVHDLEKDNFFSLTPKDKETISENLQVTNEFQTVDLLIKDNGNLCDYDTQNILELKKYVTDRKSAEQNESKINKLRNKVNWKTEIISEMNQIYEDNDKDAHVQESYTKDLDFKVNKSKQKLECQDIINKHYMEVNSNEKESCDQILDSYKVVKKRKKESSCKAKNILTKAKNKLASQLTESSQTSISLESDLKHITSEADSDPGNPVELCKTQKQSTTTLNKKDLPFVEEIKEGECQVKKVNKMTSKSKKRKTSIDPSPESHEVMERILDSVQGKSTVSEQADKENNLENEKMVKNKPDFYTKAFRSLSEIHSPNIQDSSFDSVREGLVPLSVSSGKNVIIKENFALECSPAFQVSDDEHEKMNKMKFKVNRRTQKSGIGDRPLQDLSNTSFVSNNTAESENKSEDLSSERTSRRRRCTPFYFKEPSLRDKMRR
UniProt Q149N8: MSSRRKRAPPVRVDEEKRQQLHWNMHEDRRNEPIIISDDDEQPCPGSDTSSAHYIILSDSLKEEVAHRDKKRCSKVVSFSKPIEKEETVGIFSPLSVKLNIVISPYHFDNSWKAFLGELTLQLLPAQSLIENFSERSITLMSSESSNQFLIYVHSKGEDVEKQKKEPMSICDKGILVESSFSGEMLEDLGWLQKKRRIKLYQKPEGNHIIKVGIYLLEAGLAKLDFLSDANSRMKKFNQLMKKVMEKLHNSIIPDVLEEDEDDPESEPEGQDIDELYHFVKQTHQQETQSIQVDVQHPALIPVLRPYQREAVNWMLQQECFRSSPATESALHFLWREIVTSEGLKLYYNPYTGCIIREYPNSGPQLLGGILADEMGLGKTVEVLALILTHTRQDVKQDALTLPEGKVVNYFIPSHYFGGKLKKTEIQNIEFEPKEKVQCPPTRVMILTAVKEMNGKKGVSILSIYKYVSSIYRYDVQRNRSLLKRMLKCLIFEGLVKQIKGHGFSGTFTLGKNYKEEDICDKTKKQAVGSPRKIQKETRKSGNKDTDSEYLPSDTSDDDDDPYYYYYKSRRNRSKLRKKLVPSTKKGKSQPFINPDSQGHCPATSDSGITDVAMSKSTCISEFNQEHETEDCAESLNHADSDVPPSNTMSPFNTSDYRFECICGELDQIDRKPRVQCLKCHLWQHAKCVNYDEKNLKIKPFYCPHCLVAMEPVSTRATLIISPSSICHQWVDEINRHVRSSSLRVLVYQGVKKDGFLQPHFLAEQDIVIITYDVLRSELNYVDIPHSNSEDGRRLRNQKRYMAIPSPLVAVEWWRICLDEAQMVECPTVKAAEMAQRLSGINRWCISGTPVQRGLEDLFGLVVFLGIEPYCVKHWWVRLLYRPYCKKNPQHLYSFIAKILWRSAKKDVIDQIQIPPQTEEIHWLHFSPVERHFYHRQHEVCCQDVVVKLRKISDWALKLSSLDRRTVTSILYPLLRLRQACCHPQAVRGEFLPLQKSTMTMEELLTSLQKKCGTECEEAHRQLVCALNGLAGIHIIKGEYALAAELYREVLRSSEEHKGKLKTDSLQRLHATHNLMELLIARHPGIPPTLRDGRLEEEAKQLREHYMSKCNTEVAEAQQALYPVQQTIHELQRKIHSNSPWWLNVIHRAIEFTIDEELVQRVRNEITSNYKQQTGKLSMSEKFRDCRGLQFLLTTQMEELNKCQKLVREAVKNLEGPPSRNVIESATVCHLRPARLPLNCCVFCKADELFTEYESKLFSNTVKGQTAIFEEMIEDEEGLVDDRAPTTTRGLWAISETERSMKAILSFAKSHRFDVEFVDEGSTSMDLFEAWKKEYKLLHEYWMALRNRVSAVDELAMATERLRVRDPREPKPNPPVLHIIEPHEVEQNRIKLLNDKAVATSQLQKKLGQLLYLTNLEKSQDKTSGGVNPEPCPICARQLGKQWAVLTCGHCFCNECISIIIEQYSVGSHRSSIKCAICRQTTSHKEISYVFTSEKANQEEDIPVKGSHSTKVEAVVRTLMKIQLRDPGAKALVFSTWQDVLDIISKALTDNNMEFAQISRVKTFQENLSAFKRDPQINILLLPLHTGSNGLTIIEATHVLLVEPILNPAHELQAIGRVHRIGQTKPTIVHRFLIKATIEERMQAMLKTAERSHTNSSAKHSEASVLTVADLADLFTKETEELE
UniProt Q6IQ49, 292-311: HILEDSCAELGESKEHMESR
UniProt Q9P0V3: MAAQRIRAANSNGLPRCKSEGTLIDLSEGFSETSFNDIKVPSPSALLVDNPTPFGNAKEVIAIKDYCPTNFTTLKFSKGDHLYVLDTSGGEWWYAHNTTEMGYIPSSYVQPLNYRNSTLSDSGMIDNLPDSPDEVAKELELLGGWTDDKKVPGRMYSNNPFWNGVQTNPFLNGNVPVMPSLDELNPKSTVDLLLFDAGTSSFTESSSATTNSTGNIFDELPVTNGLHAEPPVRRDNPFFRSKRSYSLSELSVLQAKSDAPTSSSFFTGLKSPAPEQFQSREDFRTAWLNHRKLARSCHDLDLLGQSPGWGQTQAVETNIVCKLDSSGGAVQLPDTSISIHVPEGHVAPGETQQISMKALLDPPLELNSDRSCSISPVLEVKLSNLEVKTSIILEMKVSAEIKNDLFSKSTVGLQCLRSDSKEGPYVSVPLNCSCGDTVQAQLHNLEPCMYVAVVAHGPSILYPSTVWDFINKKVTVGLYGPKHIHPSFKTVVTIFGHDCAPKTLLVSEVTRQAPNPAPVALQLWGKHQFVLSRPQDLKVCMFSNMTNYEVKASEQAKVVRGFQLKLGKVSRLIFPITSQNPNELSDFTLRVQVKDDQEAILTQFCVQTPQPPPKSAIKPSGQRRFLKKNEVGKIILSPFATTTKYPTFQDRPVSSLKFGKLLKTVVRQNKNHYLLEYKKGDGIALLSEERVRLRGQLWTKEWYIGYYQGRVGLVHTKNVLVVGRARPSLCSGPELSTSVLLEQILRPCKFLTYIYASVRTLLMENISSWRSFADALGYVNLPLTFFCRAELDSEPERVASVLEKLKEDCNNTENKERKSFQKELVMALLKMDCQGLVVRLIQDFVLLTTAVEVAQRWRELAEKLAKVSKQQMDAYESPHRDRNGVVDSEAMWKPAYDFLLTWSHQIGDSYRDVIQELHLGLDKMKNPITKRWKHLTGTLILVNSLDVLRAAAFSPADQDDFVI
UniProt Q15464: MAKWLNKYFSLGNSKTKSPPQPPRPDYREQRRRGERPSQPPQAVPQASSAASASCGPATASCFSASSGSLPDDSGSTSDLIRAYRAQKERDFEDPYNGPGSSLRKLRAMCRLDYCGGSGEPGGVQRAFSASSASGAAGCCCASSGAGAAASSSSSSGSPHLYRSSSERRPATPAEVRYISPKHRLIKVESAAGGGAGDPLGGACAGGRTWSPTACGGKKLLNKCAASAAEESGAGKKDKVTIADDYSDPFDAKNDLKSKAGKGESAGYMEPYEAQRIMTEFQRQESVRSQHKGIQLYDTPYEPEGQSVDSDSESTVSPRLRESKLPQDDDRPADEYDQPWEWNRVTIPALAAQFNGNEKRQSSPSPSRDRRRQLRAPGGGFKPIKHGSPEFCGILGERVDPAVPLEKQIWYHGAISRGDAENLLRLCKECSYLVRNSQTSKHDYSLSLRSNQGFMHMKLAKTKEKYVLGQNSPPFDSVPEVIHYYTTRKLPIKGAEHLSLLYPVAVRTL
UniProt Q96BR1: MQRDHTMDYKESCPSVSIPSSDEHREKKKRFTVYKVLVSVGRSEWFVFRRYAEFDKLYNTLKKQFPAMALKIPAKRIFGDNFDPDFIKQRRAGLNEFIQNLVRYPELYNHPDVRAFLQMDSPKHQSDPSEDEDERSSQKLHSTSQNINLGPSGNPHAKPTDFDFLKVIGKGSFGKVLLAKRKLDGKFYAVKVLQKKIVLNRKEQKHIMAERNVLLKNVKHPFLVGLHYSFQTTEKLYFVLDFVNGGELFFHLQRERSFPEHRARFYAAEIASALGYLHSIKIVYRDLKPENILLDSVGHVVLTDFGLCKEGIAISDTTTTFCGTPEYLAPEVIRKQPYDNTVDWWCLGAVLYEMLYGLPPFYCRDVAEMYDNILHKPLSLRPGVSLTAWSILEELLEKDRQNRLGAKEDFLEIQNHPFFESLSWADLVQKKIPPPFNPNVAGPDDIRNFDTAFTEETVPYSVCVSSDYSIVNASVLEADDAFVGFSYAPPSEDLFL
UniProt Q9UHD8, 238-257: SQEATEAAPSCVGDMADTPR
UniProt Q7L8J4: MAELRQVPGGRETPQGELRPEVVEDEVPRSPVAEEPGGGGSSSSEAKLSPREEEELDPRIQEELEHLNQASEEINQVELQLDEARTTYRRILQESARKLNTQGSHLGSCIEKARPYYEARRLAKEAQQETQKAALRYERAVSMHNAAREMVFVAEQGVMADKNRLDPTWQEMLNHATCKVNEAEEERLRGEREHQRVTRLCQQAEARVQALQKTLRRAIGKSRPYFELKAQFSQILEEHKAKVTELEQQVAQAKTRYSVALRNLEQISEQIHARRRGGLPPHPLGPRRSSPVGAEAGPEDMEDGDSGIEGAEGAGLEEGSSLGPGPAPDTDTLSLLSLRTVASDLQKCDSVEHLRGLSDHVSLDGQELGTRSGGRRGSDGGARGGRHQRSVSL
UniProt Q587I9: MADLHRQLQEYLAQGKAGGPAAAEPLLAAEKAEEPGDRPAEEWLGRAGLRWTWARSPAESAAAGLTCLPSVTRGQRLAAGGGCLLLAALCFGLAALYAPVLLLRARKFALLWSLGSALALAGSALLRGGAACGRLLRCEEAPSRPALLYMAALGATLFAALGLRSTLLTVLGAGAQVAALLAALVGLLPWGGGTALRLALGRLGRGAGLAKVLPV
UniProt Q8WVM8: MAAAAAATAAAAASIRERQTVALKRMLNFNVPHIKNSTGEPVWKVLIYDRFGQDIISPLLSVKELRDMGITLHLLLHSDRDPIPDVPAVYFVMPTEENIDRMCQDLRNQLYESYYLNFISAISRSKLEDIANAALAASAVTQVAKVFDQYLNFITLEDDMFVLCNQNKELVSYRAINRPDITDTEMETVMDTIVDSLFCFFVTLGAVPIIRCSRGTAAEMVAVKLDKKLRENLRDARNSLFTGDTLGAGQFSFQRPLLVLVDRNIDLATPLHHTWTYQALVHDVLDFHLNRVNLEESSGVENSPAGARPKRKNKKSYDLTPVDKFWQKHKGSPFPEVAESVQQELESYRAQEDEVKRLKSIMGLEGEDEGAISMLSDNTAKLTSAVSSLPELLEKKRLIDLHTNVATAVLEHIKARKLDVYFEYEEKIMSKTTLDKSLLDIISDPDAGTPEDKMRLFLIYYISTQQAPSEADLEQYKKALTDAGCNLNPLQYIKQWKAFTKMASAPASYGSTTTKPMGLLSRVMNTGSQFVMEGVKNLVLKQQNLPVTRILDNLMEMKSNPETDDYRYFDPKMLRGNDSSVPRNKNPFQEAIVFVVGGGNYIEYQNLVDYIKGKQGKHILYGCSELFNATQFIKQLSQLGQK
UniProt Q9BY12, 294-313: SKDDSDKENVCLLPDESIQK
UniProt O43765: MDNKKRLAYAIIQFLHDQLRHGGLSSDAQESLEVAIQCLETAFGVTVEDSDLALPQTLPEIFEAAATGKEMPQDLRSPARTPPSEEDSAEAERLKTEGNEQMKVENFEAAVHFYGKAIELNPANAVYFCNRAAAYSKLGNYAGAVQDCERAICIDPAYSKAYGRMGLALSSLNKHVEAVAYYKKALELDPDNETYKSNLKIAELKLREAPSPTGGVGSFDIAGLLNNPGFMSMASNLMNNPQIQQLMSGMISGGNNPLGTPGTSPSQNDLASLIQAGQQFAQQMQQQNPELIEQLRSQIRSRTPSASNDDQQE

Legend:
[1] = compound: ClCC(=O)N[C@@H]1CCCc2ccccc12; experiment: log2 mean competition ratio of IA-DTB cysteine labelling (DMSO/compound) (log2 ratio); higher = stronger cysteine engagement by compound; details: treatment time: 4 h, cell line lysate: HEK293T
Experimental: (§1)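 IA-DTB competitive cysteine chemoproteomics in HEK293T RIPA lysate. Lysates were treated with compound 29 or 30 at 50 or 200 µM for 4 h, then IA-DTB (500 µM, 1 h), trypsin-digested, NeutrAvidin-enriched and analysed by diaPASEF. Competition ratio = intensity DMSO / intensity compound (n=4 treated, n=64 DMSO); binding: mean log2 CR ≥ 1 and p ≤ 0.05 plus QC filters. Target is the cysteine site.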

[2] = compound: ClCC(=O)N[C@H]1CCCc2ccccc12; experiment: as above; details: treatment time: 4 h, cell line lysate: HEK293T
Experimental: as §1

Row | Target | log2 mean competition ratio ([1]; 50 µM) | log2 mean competition ratio ([1]; 200 µM) | log2 mean competition ratio ([2]; 50 µM) | log2 mean competition ratio ([2]; 200 µM)
1 | SGO2 C1067 (UniProt Q562F6) | -0.378 | -0.00607 | -0.229 | 0.0917
2 | SETX C1368 (UniProt Q7Z333) | -0.011 | 0.212 | 0.0137 | -0.102
3 | SERPINB9 C370 (UniProt P50453) | 0.00197 | -0.168 | 0.316 | -0.147
4 | SESN2 C8 (UniProt P58004) | -0.263 | 0.241 | -0.101 | 0.0699
5 | SENP6 C291 (UniProt Q9GZR1) | -0.155 | 0.0221 | -0.621 | -0.0207
6 | SHPRH C439 (UniProt Q149N8) | -0.023 | -0.465 | 0.407 | -0.021
7 | SEMA6A C787 | -0.0907 | -0.0709 | 0.324 | 0.0327
8 | SHMT2 C80 | 0.355 | 0.52 | -0.0807 | 0.404
9 | SHPRH C845 (UniProt Q149N8) | 0.156 | 0.0452 | -0.322 | 0.0336
10 | SDE2 C298 (UniProt Q6IQ49) | 0.0323 | 0.31 | -0.336 | 0.0988
11 | SH3BP4 C372 (UniProt Q9P0V3) | 0.173 | -0.00476 | -0.026 | -0.162
12 | SASH1 C720 (UniProt O94885) | 0.146 | -0.153 | -0.211 | 0.0874
13 | SEC23IP C467 (UniProt Q9Y6Y8) | 0.125 | -0.16 | -0.271 | -0.166
14 | SHB C115 (UniProt Q15464) | 0.158 | -0.0631 | 0.252 | 0.202
15 | SGK3 C13 (UniProt Q96BR1) | -0.172 | -0.291 | -0.32 | -0.245
16 | SAMHD1 C341 (UniProt Q9Y3Z3) | 0.12 | 0.166 | -0.443 | 0.127
17 | SEPTIN9 C248 (UniProt Q9UHD8) | -0.186 | -0.226 | 0.137 | -0.121
18 | SEC24A C381 (UniProt O95486) | 0.228 | 0.0122 | -0.139 | -0.027
19 | SDCCAG8 C649 | -0.221 | 0.0332 | -0.189 | -0.0898
20 | SH3BP5L C109 (UniProt Q7L8J4) | 0.0144 | 0.579 | -0.54 | 0.669
21 | SGO2 C528 (UniProt Q562F6) | 0.0531 | 0.128 | 0.428 | 0.0502
22 | SETD2 C2532 (UniProt Q9BYW2) | -0.0311 | 0.149 | 0.18 | 0.437

Row | Target | log2 mean competition ratio ([1]; 50 µM) | log2 mean competition ratio ([1]; 200 µM) | log2 mean competition ratio ([2]; 50 µM) | log2 mean competition ratio ([2]; 200 µM)
23 | SFT2D3 C67 (UniProt Q587I9) | -0.429 | -0.248 | -0.208 | -0.11
24 | SIPA1L3 C1775 | 0.218 | 0.31 | 0.138 | 0.215
25 | SEC23B C180 (UniProt Q15437) | -0.2 | -0.0225 | -0.549 | -0.128
26 | SGO2 C954 (UniProt Q562F6) | -0.358 | 0.192 | 0.14 | 0.449
27 | SEPHS1 C71 (UniProt P49903) | -0.0921 | 0.0587 | -0.315 | -0.0151
28 | SH3PXD2B C664 (UniProt A1X283) | -0.143 | 0.0227 | 0.0804 | 0.218
29 | SERPINH1 C156 | -0.103 | 0.201 | 0.15 | 0.191
30 | SHTN1 C550 (UniProt A0MZ66) | -0.042 | -0.019 | 0.139 | -0.0509
31 | SELENOO C241 (UniProt Q9BVL4) | 0.0708 | -0.437 | -0.285 | -0.604
32 | SCAI C63 (UniProt Q8N9R8) | 0.314 | -0.0784 | 0.00123 | 0.178
33 | SCFD1 C485 (UniProt Q8WVM8) | 0.19 | 0.149 | -0.113 | 0.17
34 | SENP5 C77 (UniProt Q96HI0) | -0.124 | 0.372 | -0.469 | 0.414
35 | SENP1 C60 | -0.119 | 0.0881 | 0.197 | 0.0624
36 | SCYL1 C241 (UniProt Q96KG9) | 0.0245 | 0.292 | -0.143 | 0.21
37 | SENP5 C463 (UniProt Q96HI0) | 0.00375 | -0.0731 | -0.45 | -0.0572
38 | SIK3 C333 | -0.164 | 0.107 | -0.16 | 0.00662
39 | SCARF2 C295 | 0.214 | 0.198 | -0.0493 | 0.415
40 | SCAPER C304 (UniProt Q9BY12) | -0.568 | 0.0596 | -0.277 | 0.0999
41 | SAMD11 C161 | -0.07 | 0.259 | -0.254 | 0.146
42 | SGTA C129 (UniProt O43765) | 0.0636 | -0.0591 | 0.0807 | 0.0062
43 | SGO2 C681 (UniProt Q562F6) | -0.295 | 0.272 | -0.207 | 0.506
44 | SENP7 C980 (UniProt Q9BQF6) | -0.127 | 0.164 | -0.22 | -0.133

A few values from the list.
Under log2 mean competition ratio ([2]; 200 µM), SGK3 C13 (UniProt Q96BR1) is listed with -0.245
Under log2 mean competition ratio ([1]; 50 µM), SAMHD1 C341 (UniProt Q9Y3Z3) is listed with 0.12
Under log2 mean competition ratio ([2]; 200 µM), SH3BP5L C109 (UniProt Q7L8J4) is listed with 0.669
